Numbering of substitutions follows the chain as printed. No constants are given. Whether binding was seen depends on the method and setting. Binding seen in cells or lysates may run through a third protein. Some binding calls cover weakened binding; strength is not graded here. Tags and fused reporters may be left off the sequences shown. Each block holds one molecule with its values, some of them ahead of it.
Columns and labels:
[1] = target: T1, hP2X7R-WT fused at the C-terminus to Cerulean or cp49Venus (human) (UniProt Q99572); assay: FRET or BRET; sensitised-emission FRET (Cerulean donor, cp49Venus acceptor) in living transfected HEK293 cells at 37°C; confocal; NFRET by PixFRET, quantified in ROIs at the cell membrane
T1 sequence: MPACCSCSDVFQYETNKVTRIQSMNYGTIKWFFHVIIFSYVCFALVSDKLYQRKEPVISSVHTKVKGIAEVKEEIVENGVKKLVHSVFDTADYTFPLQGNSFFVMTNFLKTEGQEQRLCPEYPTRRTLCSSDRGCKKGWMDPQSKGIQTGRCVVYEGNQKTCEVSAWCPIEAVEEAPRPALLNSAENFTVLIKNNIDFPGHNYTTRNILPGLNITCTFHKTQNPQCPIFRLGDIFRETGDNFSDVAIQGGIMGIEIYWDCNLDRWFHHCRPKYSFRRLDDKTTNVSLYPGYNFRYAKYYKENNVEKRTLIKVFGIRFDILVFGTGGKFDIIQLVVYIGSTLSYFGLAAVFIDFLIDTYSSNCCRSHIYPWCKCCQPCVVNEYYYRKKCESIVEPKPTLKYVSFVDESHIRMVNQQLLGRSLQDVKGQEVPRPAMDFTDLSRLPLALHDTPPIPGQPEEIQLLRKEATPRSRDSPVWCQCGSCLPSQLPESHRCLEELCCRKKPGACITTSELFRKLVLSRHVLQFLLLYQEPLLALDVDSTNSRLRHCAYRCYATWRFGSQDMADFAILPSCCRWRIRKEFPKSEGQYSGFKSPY

By UniProt entry, the sequences of proteins in these tests, tags left out. Residues count along the entry.
UniProt P04629, residues 33-796: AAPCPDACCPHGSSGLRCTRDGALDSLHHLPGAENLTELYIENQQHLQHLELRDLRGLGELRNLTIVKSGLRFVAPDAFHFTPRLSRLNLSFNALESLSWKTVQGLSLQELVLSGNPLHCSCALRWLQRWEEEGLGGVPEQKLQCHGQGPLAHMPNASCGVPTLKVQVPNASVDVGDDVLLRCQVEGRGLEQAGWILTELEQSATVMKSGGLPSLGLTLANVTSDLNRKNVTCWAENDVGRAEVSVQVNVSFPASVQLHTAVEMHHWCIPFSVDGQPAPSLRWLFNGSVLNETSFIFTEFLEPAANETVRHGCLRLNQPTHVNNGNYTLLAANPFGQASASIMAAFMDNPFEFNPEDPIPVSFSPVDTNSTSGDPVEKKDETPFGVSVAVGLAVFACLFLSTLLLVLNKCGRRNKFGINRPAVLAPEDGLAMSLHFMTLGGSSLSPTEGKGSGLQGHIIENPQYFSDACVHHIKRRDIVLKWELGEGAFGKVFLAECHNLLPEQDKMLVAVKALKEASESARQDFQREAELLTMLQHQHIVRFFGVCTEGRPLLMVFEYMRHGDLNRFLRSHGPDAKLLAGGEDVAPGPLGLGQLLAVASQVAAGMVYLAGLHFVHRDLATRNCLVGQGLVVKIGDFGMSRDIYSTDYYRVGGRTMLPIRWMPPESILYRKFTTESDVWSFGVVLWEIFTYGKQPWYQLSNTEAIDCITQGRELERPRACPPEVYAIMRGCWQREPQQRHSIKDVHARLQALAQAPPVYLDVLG

[2] = target: T2, STREP-tagged hP2X7R-WT (human) (UniProt Q99572); assay: co-IP; HEK293 clones stably co-expressing STREP-hP2X7R-WT and HIS-hP2X7R-Gln460Arg; membrane fractions; modified RIPA buffer (Triton X-100 1%, SDS 0.1%); IP with anti-STREP or anti-HIS, immunoblot with the same antibodies; mock IP with normal mouse IgG
T2 sequence: T1 sequence

[3] = target: hP2X7R-Gln460Arg fused at the C-terminus to Cerulean or cp49Venus (human) (UniProt Q99572); assay: FRET or BRET; sensitised-emission FRET (Cerulean donor, cp49Venus acceptor) in living transfected HEK293 cells at 37°C; confocal; NFRET by PixFRET, quantified in ROIs at the cell membrane

Molecule: tyrosine kinase receptor A (TRKA) fused to Venus (from UniProt P04629 33-796)
binding [1]: no binding

binding [2]: binds
B1: HIS-tagged hP2X7R-Gln460Arg (receptor, UniProt Q99572 1-595)
chain: T1 sequence with Q460R

B2: hP2X7R-Gln460Arg fused at the C-terminus to Cerulean or cp49Venus (receptor, UniProt Q99572 1-595)
chain: T1 sequence with Q460R
binding [3]: binds
binding [1]: binds

B3: hP2X7R-WT fused at the C-terminus to Cerulean or cp49Venus (receptor, UniProt Q99572 1-595)
chain: T1 sequence
binding [1]: binds

— article PMC4795689
